Source: ChEMBL document CHEMBL3988442, “University of Dundee, Small-Polar-MMV Screening Library” (2021).

The filed quantity is “Percent Effect” (%). The controls that fix the scale are not given in the record; negative values are as filed. This is an unselected part of the compounds tested.

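Whole-parasite assay of Trypanosoma brucei over 72 hours; the read-out is not stated. Concentration: 30 µM. The record gives no direction; compounds that gave an IC50 in retests scored well above the rest, so higher reads as stronger inhibition. Values scatter widely below zero; nearly all retest evidence comes from the higher of the two concentrations used. Size under these conditions: about 64,000 compounds, about 940 of them at 50% or above in at least one test.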

{"smiles": "COc1ccc(S(=O)(=O)NC(=O)COC2CCCCC2)cc1C", "percent effect": -8.417}
{"smiles": "CCc1ccccc1C(=O)NS(=O)(=O)CCCC#N", "percent effect": -44.23}
{"smiles": "COCCNC(=O)Cn1cc2c(n1)c(C)nn2C(C)C", "percent effect": -2.456}
{"smiles": "CC(=O)N1CCN(CCCOc2ccccc2F)CC(C(N)=O)C1", "stereo": "stereo not given", "percent effect": -12.37}
{"smiles": "O=C(C1CC2(CCNCC2)CN1)N1CCN(c2cccc(Cl)c2Cl)CC1", "stereo": "stereo not given", "percent effect": -3.702}
{"smiles": "O=C(O)C(F)(F)F.[H][C@@]12CN(C(=O)Cc3cccs3)C[C@]1([H])OCCN2C(C)C", "percent effect": -7.761}
{"smiles": "CCOC(C)c1nc(CN2CCC(C3OCCO3)CC2)cs1", "stereo": "stereo not given", "percent effect": -50.74}
{"smiles": "COCC(=O)N1CCc2[nH]nc(-c3ccc4c(c3)OCO4)c2C1", "percent effect": -164.1}
{"smiles": "CSc1ncc(C(=O)NCCn2nccc2C)cn1", "percent effect": -19.58}
{"smiles": "O=C(c1ccoc1)N(Cc1cccnc1)C1CC1", "percent effect": -1.424}
{"smiles": "COCC1CN(Cc2ccoc2)Cc2nn(C)cc21.O=C(O)C(F)(F)F", "stereo": "stereo not given", "percent effect": 26.18}
{"smiles": "N#Cc1ccccc1N1CCCN(C(=O)CCc2nccs2)CC1", "percent effect": -31.1}
{"smiles": "Cc1ccccc1CCC1CCCN(Cc2c(C)[nH]c(=O)[nH]c2=O)C1", "stereo": "stereo not given", "percent effect": -11.72}
{"smiles": "COC(=O)[C@H]1CN(S(C)(=O)=O)CCN1S(C)(=O)=O", "percent effect": -5.286}
{"smiles": "Cc1nnn2c1COC(CNCc1nccs1)C2.O=C(O)C(F)(F)F", "stereo": "stereo not given", "percent effect": 2.897}
{"smiles": "O=C(Cc1ccccc1)NCCNC(=O)c1scnc1Cl", "percent effect": -3.424}
{"smiles": "CC(C)N1CCCC(C(=O)N(C)CCCc2cnn(C)c2)C1", "stereo": "stereo not given", "percent effect": -0.7075}
{"smiles": "Cc1ccc2c(c1)nc1n2[C@@H](CNC(=O)c2cncnc2)COC1", "percent effect": -3.868}
{"smiles": "O=C(O)C(F)(F)F.[H][C@@]12OCCC[C@]1([H])N(C(=O)COC)C[C@H]2OCc1ccncc1", "percent effect": -27.65}
{"smiles": "CCc1nnc(CN2CCC(c3nc4cc(Cl)ccc4o3)CC2)o1", "percent effect": -3.576}
{"smiles": "Cc1ncsc1CN1CC(C)(C2CC2)CC1=O", "stereo": "stereo not given", "percent effect": -16.66}
{"smiles": "CC(C)(C)OC(=O)N1CCCC[C@H]1C(=O)NCc1nccs1", "percent effect": -23.35}
{"smiles": "Cc1cncc(NCC(O)c2ccco2)n1", "stereo": "stereo not given", "percent effect": -10.2}
{"smiles": "[H][C@@]12CS(=O)(=O)C[C@]1([H])N(Cc1ncccc1C)CCN2CC(=O)N(C)C", "percent effect": -40.89}
{"smiles": "Cc1nc(OCC(=O)N2CCCC2)cc(-n2cccn2)n1", "percent effect": -22.88}
{"smiles": "Cc1nc(N)ncc1C(=O)N1CCCC(CCc2ccc(F)c(F)c2)C1", "stereo": "stereo not given", "percent effect": -3.791}
{"smiles": "CC(C)(CCS(C)(=O)=O)CNC(=O)NC1CCCCC1(C)C", "stereo": "stereo not given", "percent effect": -14.72}
{"smiles": "Cc1nnc(SCC(=O)NCC(c2ccccc2Cl)N(C)C)s1", "stereo": "stereo not given", "percent effect": -15.26}
{"smiles": "CC(C)c1nc(CNC(C(=O)N2CCOCC2)C(C)C)no1", "stereo": "stereo not given", "percent effect": -46.28}
{"smiles": "C[C@@H]1CN(C(=O)c2cccn2C)C[C@]12CCN(c1ccsc1)C2=O", "percent effect": -423.1}
{"smiles": "CCn1cc2c(n1)CN(Cc1nccs1)CC2COCC1CC1.O=C(O)C(F)(F)F", "stereo": "stereo not given", "percent effect": 21.34}
{"smiles": "COc1ccc(C(=O)NS(C)(=O)=O)cc1-c1ccccc1", "percent effect": -73.1}
{"smiles": "O=C(O)C(F)(F)F.[H][C@@]12C[C@@H](C(=O)Nc3cccnc3)CN(S(C)(=O)=O)[C@]1([H])CCO2", "percent effect": -55.27}
{"smiles": "CCc1cc(NC(=O)C(c2cccc(F)c2)N2CCOCC2)[nH]n1", "stereo": "stereo not given", "percent effect": -2.659}
{"smiles": "O=C(CN1CCC(c2cccc(F)c2)C1)NCc1ccco1", "stereo": "stereo not given", "percent effect": -41.01}
{"smiles": "CC(C)(C)c1cn(C[C@H]2CC3CCN2C[C@@H]3C(=O)NC2CC2)nn1", "stereo": "stereo not given in full", "percent effect": -48.76}
{"smiles": "Cn1cnc2c1CCN(Cc1csc(-c3ccsc3)n1)C2", "percent effect": -17.97}
{"smiles": "CC1CCN(c2ccc(C(=O)N3CCCC3c3nncn3C)cn2)CC1", "stereo": "stereo not given", "percent effect": -48.88}

Some entries from above, unchanged:

- Cc1ccc2c(c1)nc1n2[C@@H](CNC(=O)c2cncnc2)COC1 | -3.868%
- Cc1nc(N)ncc1C(=O)N1CCCC(CCc2ccc(F)c(F)c2)C1 (stereo not given) | -3.791%
- C[C@@H]1CN(C(=O)c2cccn2C)C[C@]12CCN(c1ccsc1)C2=O | -423.1%